Measurements reported in PubChem BioAssay AID1671190 (National Center for Advancing Translational Sciences (NCATS), 2021).
The campaign covered roughly 580,000 compounds. About 6,100 (1.1%) were called active. Inconclusive means that the source gave no clear call. Such entries were picked first, then a sample of the others. Calls come from the whole dose curve; as a rule, active = well fitted inhibition curve with a large enough effect; inconclusive = small, poorly fitted or top-dose-only effect, or another doubt; inactive = no such curve, though single readings can be large or run the other way. A potency beside an inconclusive call is a rough fit, not a confirmed value.

By UniProt entry, the sequences of proteins in these tests, tags left out.
UniProt P18054, whole entry, looked up: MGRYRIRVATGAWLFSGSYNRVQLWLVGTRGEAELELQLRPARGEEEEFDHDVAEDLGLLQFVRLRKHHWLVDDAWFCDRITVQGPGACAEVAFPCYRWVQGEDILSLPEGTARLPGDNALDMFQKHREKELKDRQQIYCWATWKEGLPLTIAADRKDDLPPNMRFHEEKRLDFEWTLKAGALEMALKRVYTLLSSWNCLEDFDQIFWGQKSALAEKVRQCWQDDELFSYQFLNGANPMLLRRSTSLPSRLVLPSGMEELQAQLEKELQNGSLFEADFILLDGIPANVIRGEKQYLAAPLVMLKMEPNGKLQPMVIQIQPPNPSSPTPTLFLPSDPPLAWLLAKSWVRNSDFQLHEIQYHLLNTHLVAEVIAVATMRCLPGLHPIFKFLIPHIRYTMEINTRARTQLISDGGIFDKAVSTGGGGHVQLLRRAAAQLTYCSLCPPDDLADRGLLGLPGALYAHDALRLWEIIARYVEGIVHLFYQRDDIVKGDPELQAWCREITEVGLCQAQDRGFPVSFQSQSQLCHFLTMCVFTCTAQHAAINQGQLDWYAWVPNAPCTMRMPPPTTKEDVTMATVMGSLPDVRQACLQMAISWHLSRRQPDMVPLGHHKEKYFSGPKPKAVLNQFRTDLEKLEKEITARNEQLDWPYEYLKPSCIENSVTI

Molecular target: Polyunsaturated fatty acid lipoxygenase ALOX12 (Homo sapiens) (UniProt P18054)
Assay: Primary qHTS assay for inhibitors of human arachidonate 12S-lipoxygenase (ALOX12): Round 2
Settings: purified 12hLO, xylenol orange hydroperoxide absorbance; series mostly up to 108 µM
Method in brief: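 Purified human 12hLO (150 nM final) in 25 mM Hepes, 0.01% Triton X-100, pH 7.0 was preincubated 15 min at room temperature with compound. Then 40 uM arachidonic acid was added, 30 min. Hydroperoxide was read by Fe-XO absorbance ratio 573/405 nm.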
Potency is the fitted concentration of half-maximal effect.

| SMILES | Potency |
| --- | --- |
| Cc1ccc(NCC(=O)Nc2cc(Cl)ccc2-n2cncn2)cc1F | inactive |
| CC(C)C(N)c1csc(NC(=O)Nc2cccc(C(F)(F)F)c2)n1 (centres undefined) | inconclusive: 79.4 µM [inhibitor, partial curve, poor fit] |
| NC(=O)c1ccsc1NC(=O)c1ccc(S(=O)(=O)N2CCCc3ccccc32)cc1 | inactive |
| O=C(N/N=C/c1cccnc1)c1cc(-c2ccc(Cl)cc2)nc2ccccc12 | inconclusive: 126 µM [inhibitor, single point] |
| O=[N+]([O-])c1ccc(NC(c2ccccc2)c2ccccc2)cc1 | inconclusive: 126 µM [inhibitor, single point] |
| C=CCNc1nc(C(=O)OC(C)C(=O)Nc2ccc(F)cc2Cl)cs1 (centres undefined) | inconclusive: 8.91 µM [inhibitor, full curve] |
| O=C(c1ccccc1Cl)N1CCCC(c2nn(-c3cccc(Cl)c3)c(=O)[nH]2)C1 (centres undefined) | inconclusive: 39.8 µM [inhibitor, partial curve] |
| Cc1ccc(NS(=O)(=O)c2ccc(C(=O)NCC(c3ccco3)N3CCCCC3)cc2)cc1 (centres undefined) | inconclusive: 50.1 µM [inhibitor, partial curve, poor fit] |
| COc1ccc(NC(=O)CCOc2ccccc2F)cc1S(=O)(=O)N1CCCCC1 | inconclusive: 89.1 µM [inhibitor, single point] |
| O=C(CCN1C(=O)S/C(=C\c2ccccc2)C1=O)N1CCCCC1 | inactive |
| CCOC(=O)C1(C)CCN1C(=O)c1oc2ccccc2c1C (centres undefined) | inactive |
| CCOc1ccc(Nc2ccc(S(=O)(=O)N3CCN(C)CC3)cc2[N+](=O)[O-])cc1OCC | inconclusive: 126 µM [inhibitor, single point] |
| COC(=O)c1cc(NC(=O)CC2Sc3ccccc3NC2=O)cc(C(=O)OC)c1 (centres undefined) | inconclusive: 79.4 µM [inhibitor, partial curve, poor fit] |
| C=CCN1C(=O)c2ccccc2C1(O)Cc1ccccc1 (centres undefined) | inactive |
| COc1ccc(CCC(=O)N2CCC3(CC2)NCCc2c3[nH]c3ccc(OC)cc23)cc1 | inactive |
| Cc1ccc(C)n1C1C(=O)N(C)c2c(F)cccc21 (centres undefined) | inconclusive: 44.7 µM [inhibitor, partial curve, poor fit] |
| COc1ccccc1-n1[nH]c(C)c(Cc2ccc(Br)cc2)c1=O | inconclusive: 44.7 µM [inhibitor, partial curve, poor fit] |
| Cc1cccc(Cn2c(NCCO)nc3c2c(=O)n(C)c(=O)n3C)c1 | inconclusive: 5.62 µM [inhibitor, partial curve, poor fit] |
| Fc1ccccc1NC(=S)NCc1ccc(Cl)cc1 | inconclusive: 63.1 µM [inhibitor, partial curve, poor fit] |
| COc1ccccc1NC(=O)Cn1ccc2c(Cl)cccc21 | inactive |
| CCOc1ccccc1-c1cc(C(=O)OC)c2ccccc2n1 | inconclusive: 89.1 µM [inhibitor, single point] |
| CC1CCC(NC(=O)CSc2nc3cc([N+](=O)[O-])ccc3o2)CC1 (centres undefined) | inconclusive: 44.7 µM [inhibitor, partial curve, poor fit] |

A stretch from the list above, for reference:

| SMILES | Potency |
| --- | --- |
| Cc1ccc(NCC(=O)Nc2cc(Cl)ccc2-n2cncn2)cc1F | inactive |
| CC(C)C(N)c1csc(NC(=O)Nc2cccc(C(F)(F)F)c2)n1 (centres undefined) | inconclusive: 79.4 µM [inhibitor, partial curve, poor fit] |

(more compounds)

| SMILES | Potency |
| --- | --- |
| C/C(=N/Nc1ccc([N+](=O)[O-])cc1)c1ccncc1 | active: 35.5 µM |
| Nc1ccc(C2CCCc3nonc32)c2nonc12 (centres undefined) | inconclusive: 100 µM [inhibitor, partial curve, poor fit] |
| Cc1cccc(OCc2nnc(SC(C)C(=O)O)n2Cc2ccccc2)c1 (centres undefined) | inconclusive: 112 µM [inhibitor, partial curve, poor fit] |
| Cn1c(=O)c2cc(NC(=O)NCCc3ccccc3)ccc2n1Cc1ccccc1 | inactive |
| Cc1noc2c(-c3cccnc3NCCCn3ccnc3)cc(-c3ccccc3)nc12 | inactive |
| COc1ccc(-c2nc(C#N)c(N3CCC(C(N)=O)CC3)o2)cc1 | inconclusive: 20 µM [inhibitor, partial curve, poor fit] |
| CN(/N=C/c1cc(Cl)cc(Cl)c1O)c1c(Cl)cccc1[N+](=O)[O-] | inconclusive: 141 µM [inhibitor, single point] |
| Cc1ccc(N(C(=O)Cc2cccs2)C(C(=O)NC2CCCCC2)c2ccccn2)cc1C (centres undefined) | inconclusive: 141 µM [inhibitor, partial curve, poor fit] |
| CCCc1cc(C(=O)O)sc1C | inconclusive: 39.8 µM [inhibitor, partial curve, poor fit] |
| CN(Cc1cnc2ccccc2c1)C(=O)c1ccc(CCC(C)(C)O)cc1 | inactive |
| Cc1ccc(NC(=O)CNc2ccccc2N2CCCC2=O)cc1S(=O)(=O)N1CCOCC1 | inconclusive: 44.7 µM [inhibitor, partial curve, poor fit] |
| O=C(c1ccc(F)cc1)N1CCC2(CC1)NCCc1[nH]cnc12 | inconclusive: 3.55 µM [inhibitor, full curve, poor fit] |
| CCOC(=O)/C=C1\NC2(CCCCC2)Cc2cc(OC)c(OC)cc21 | inactive |
| CS(=O)(=O)N1CCc2[nH]cnc2C12CCN(C(=O)C1CCCC1)CC2 | inactive |
| CC[N+](CC)(CC)CCOc1ccc(/C=C\c2ccccc2)cc1 | inactive |
| CC1(C(=O)NC2CCCCCC2)CCN1C(=O)C1(c2ccccc2)CC1 (centres undefined) | inactive |
| CN(Cc1ccccc1)c1ccc(N2C(=O)CCCC2=O)cc1[N+](=O)[O-] | inconclusive: 2.51 µM [inhibitor, full curve, poor fit] |
| Cn1cccc1/C=C1\SC(=O)N(c2ccc(O)cc2)C1=O | inconclusive: 28.2 µM [inhibitor, full curve, poor fit] |
| O=C(Nc1ccc(F)cc1)c1ccc(S(=O)(=O)NCC2CCCO2)cc1 (centres undefined) | inactive |
| COC(=O)c1cc(OC)c(OC)cc1NC(=S)Nc1cc(Cl)ccc1OC | inconclusive: 89.1 µM [inhibitor, partial curve, poor fit] |
| Cc1cccc2[nH]c(SCC(=O)O)nc12 | inconclusive: 50.1 µM [inhibitor, full curve, poor fit] |
| COCCn1ccc2c(OCC(=O)Nc3cc(OC)ccc3OC)cccc2c1=O | inactive |
